In patent publication US20150174203A1:
No constants are given. Whether binding was seen depends on the method and setting. For some assays here: In cells and extracts the contact can be indirect. Some binding calls cover weakened binding; strength is not graded here. Tags and fused reporters may be left off the sequences shown.

Protein sequences, listed by entry. Tags and fused reporters are not part of them. Lines headed by an entry give the natural chain unless they say otherwise; changes in a name come on top.
UniProt Q86XS5: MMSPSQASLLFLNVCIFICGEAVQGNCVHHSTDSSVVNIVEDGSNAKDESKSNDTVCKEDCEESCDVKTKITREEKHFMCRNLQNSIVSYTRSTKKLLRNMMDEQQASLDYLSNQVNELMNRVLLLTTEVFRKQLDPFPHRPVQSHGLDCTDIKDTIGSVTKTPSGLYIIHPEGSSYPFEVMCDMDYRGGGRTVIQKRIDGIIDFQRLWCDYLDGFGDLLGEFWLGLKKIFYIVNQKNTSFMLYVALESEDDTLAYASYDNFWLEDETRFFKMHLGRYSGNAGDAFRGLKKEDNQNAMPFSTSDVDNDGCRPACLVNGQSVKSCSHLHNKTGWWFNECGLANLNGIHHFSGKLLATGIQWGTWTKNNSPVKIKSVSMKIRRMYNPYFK

What was measured:
[1] = target: T1, LILRB2 extracellular domain fused to human IgG-Fc (human) (UniProt Q8N423); assay: in vivo co-IP (Table 2)
T1 sequence: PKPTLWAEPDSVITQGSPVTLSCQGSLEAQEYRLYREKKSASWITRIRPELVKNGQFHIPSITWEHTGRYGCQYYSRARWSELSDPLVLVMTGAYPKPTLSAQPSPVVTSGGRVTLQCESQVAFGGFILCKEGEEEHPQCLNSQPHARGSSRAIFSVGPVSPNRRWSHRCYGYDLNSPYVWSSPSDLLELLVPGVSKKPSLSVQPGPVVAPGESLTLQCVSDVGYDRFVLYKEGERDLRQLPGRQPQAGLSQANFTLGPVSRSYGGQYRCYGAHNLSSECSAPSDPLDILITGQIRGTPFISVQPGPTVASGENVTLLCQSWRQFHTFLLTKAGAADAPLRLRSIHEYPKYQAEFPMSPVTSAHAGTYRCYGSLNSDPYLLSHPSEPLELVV

[2] = target: T1, LILRB2 extracellular domain fused to human IgG-Fc (human); assay: in vivo co-IP
[3] = target: T1, LILRB2 extracellular domain fused to human IgG-Fc (human); assay: co-transfection in 293T cells, IP with protein A, Western blot
[4] = target: T1, LILRB2 extracellular domain fused to human IgG-Fc (human); assay: in vitro co-IP of purified proteins, protein A beads, Western blot
[5] = target: T1, LILRB2 extracellular domain fused to human IgG-Fc (human); assay: SPR (Biacore 2000), LILRB2-hFc captured on protein A, GST-Angptl-5 injected

Substance | binding [1] | binding [2] | binding [3] | binding [4] | binding [5]
untagged Angptl-5, mammalian-expressed (from UniProt Q86XS5 26-388) (ligand) | binds | binds | binds |  | 
GST-Angptl-5 (purified, purchased from Abnova) (from UniProt Q86XS5 26-388) (ligand) |  |  |  | binds | binds
